Test results reported in paper doi:10.1101/634915.
Residue numbers refer to the chain shown, from its start. No constants are given. Whether binding was seen depends on the method and setting. In cells and extracts the contact can be indirect. Some entries that bind do so weakly or less than the wild type. For some assays here: Sequences can lack the tags named with a protein.

Legend:
Assay in all cases: FRET or BRET
[1] = biological target: T1, RlucII-CLN3^V330F (UniProt Q13286)
T1 sequence: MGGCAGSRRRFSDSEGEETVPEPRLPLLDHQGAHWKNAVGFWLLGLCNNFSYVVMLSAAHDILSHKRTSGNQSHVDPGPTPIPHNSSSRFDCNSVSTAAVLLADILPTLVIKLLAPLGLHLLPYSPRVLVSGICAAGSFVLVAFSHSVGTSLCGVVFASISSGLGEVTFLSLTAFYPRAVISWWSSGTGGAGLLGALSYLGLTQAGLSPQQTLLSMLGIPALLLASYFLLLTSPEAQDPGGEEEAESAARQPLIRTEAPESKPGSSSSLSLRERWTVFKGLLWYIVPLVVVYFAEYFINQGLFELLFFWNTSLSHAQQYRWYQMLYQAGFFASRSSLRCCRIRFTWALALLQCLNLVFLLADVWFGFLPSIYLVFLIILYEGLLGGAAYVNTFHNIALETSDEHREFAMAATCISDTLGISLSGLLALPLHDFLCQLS

[2] = biological target: T2, RlucII-CLN3 (UniProt Q13286)
T2 sequence: T1 sequence with F330V

[3] = biological target: T3, RlucII-CLN3^L101P (UniProt Q13286)
T3 sequence: T1 sequence with L101P, F330V

[4] = biological target: T4, RlucII-CLN3^E295K (UniProt Q13286)
T4 sequence: T1 sequence with E295K, F330V

[5] = biological target: T5, RlucII-CLN3^R334H (UniProt Q13286)
T5 sequence: T1 sequence with F330V, R334H

[6] = biological target: Vps26A-nLuc (UniProt O75436)

Measured: binding

Vps26A-GFP10 (from UniProt O75436 1-327)
binds: [1] | [2] | [3] | [4] | [5]

sortilin-YFP (from UniProt Q99523 78-831) (receptor)
binds: [1] | [6] | [2] | [3] | [4] | [5]
